Sequences of proteins named here, by UniProt entry; tags and fusion partners are left off.
UniProt Q7Z7G8: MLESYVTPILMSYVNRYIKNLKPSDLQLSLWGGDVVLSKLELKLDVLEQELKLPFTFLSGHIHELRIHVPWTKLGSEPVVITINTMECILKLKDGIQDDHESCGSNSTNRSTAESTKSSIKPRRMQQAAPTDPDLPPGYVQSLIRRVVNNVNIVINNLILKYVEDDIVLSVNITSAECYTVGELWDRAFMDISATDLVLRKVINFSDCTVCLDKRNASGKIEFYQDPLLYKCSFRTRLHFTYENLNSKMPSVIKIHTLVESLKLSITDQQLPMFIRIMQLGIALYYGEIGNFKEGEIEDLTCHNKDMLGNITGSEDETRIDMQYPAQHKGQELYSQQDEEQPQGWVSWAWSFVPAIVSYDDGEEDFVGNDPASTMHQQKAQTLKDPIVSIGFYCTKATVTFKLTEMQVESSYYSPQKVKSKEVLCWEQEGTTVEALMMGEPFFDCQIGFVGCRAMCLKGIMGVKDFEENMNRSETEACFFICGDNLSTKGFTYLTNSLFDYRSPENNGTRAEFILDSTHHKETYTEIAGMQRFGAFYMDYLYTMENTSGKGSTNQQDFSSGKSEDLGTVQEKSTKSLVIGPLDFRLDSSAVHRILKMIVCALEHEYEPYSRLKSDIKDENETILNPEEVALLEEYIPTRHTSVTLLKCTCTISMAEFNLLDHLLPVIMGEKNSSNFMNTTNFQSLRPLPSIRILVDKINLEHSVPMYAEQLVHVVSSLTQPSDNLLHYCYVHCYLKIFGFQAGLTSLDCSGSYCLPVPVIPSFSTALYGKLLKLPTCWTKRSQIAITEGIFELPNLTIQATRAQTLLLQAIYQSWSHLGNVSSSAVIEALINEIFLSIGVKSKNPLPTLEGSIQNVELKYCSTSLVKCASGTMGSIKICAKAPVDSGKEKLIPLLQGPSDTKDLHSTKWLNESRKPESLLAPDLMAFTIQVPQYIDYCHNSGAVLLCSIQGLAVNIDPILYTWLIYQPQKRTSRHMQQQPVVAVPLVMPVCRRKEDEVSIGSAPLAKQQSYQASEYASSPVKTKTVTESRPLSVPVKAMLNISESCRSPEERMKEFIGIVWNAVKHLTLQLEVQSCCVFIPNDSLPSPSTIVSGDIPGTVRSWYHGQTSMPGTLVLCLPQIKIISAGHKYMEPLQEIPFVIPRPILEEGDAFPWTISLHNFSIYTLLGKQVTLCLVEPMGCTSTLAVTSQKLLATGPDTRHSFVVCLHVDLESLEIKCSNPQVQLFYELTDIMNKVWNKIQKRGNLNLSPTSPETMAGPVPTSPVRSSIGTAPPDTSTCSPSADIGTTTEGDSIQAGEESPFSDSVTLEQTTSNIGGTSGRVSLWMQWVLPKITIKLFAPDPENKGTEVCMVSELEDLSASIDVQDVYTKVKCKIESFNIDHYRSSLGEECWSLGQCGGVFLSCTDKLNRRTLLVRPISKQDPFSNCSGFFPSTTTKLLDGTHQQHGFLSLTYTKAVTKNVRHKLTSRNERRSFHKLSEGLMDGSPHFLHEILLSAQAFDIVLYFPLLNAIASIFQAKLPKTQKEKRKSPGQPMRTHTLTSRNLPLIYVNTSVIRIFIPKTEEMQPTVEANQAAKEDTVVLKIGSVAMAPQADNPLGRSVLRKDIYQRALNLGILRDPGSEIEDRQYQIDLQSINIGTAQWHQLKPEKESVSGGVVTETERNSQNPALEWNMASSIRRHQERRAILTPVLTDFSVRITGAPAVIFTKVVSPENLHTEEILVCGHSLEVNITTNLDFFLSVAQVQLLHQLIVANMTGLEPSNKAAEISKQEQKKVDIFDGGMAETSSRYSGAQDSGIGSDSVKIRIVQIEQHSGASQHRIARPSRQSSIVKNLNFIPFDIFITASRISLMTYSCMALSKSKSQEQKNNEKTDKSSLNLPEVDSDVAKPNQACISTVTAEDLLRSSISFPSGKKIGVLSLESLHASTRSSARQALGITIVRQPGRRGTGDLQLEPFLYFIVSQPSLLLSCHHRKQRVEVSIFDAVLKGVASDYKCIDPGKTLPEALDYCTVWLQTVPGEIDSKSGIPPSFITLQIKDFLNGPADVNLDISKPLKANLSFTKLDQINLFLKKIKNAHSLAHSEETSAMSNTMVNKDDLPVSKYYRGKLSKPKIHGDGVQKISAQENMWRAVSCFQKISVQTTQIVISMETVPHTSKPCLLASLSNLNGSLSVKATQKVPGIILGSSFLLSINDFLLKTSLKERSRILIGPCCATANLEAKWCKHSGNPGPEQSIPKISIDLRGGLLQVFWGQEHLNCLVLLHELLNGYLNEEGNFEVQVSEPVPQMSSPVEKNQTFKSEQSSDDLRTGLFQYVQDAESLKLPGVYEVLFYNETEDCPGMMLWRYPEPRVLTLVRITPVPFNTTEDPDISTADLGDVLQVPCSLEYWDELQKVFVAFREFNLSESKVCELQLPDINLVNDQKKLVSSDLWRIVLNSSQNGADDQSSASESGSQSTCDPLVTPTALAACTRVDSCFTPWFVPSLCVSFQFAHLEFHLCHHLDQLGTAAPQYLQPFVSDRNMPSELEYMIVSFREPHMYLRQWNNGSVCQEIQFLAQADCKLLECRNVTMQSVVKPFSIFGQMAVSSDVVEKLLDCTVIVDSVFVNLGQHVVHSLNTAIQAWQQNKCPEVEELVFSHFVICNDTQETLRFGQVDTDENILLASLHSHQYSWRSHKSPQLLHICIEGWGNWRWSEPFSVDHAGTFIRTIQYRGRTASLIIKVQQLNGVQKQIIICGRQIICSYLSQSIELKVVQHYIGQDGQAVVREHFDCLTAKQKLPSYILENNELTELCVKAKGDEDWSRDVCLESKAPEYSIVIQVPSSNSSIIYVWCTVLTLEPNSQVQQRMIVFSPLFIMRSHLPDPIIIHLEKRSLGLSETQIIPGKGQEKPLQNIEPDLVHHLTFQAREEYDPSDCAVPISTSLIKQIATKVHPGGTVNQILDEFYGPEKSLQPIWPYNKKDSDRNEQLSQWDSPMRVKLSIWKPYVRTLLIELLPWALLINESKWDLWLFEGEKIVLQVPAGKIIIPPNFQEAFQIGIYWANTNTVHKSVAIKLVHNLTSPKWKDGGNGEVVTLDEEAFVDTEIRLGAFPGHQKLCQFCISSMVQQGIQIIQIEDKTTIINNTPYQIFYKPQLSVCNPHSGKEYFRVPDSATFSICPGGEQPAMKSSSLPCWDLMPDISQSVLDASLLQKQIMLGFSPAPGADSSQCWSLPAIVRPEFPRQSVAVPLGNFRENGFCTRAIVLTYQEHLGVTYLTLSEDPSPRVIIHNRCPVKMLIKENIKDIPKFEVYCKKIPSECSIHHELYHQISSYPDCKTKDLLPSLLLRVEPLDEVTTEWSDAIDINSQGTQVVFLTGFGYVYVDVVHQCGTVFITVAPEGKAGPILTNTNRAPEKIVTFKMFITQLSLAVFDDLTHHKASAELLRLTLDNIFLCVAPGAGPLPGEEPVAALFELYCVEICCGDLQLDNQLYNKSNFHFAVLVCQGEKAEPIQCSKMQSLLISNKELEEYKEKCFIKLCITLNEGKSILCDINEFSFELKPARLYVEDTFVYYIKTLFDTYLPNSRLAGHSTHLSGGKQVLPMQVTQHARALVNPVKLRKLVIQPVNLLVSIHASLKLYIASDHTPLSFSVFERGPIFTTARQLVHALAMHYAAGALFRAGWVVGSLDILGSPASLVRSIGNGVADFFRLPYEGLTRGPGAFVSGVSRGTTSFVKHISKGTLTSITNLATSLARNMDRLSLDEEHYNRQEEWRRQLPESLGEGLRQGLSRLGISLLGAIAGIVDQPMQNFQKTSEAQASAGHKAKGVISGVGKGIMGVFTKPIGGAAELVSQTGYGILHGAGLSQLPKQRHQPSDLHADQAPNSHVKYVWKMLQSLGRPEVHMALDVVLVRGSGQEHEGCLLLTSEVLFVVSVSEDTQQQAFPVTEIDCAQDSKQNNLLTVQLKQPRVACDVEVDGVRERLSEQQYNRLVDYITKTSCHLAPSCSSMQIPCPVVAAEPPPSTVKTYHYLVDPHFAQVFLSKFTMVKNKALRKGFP

According to doi:10.1101/2024.02.28.582656:

Biological target: VPS13B-GFP (human) (UniProt Q7Z7G8)
Test: affinity purification with mass spectrometry

B1: endogenous Sec23IP (protein, UniProt Q9Y6Y8 1-1000)
chain: MAERKPNGGSGGASTSSSGTNLLFSSSATEFSFNVPFIPVTQASASPASLLLPGEDSTDVGEEDSFLGQTSIHTSAPQTFSYFSQVSSSSDPFGNIGQSPLTTAATSVGQSGFPKPLTALPFTTGSQDVSNAFSPSISKAQPGAPPSSLMGINSYLPSQPSSLPPSYFGNQPQGIPQPGYNPYRHTPGSSRANPYIAPPQLQQCQTPGPPAHPPPSGPPVQMYQMPPGSLPPVPSSVQSPAQQQVPARPGAPSVQVPSPFLLQNQYEPVQPHWFYCKEVEYKQLWMPFSVFDSLNLEEIYNSVQPDPESVVLGTDGGRYDVYLYDRIRKAAYWEEEPAEVRRCTWFYKGDTDSRFIPYTEEFSEKLEAEYKKAVTTNQWHRRLEFPSGETIVMHNPKVIVQFQPSSVPDEWGTTQDGQTRPRVVKRGIDDNLDEIPDGEMPQVDHLVFVVHGIGPVCDLRFRSIIECVDDFRVVSLKLLRTHFKKSLDDGKVSRVEFLPVHWHSSLGGDATGVDRNIKKITLPSIGRFRHFTNETLLDILFYNSPTYCQTIVEKVGMEINHLHALFMSRNPDFKGGVSVAGHSLGSLILFDILSNQKDLNLSKCPGPLAVANGVVKQLHFQEKQMPEEPKLTLDESYDLVVENKEVLTLQETLEALSLSEYFSTFEKEKIDMESLLMCTVDDLKEMGIPLGPRKKIANFVEHKAAKLKKAASEKKAVAATSTKGQEQSAQKTKDMASLPSESNEPKRKLPVGACVSSVCVNYESFEVGAGQVSVAYNSLDFEPEIFFALGSPIAMFLTIRGVDRIDENYSLPTCKGFFNIYHPLDPVAYRLEPMIVPDLDLKAVLIPHHKGRKRLHLELKESLSRMGSDLKQGFISSLKSAWQTLNEFARAHTSSTQLQEELEKVANQIKEEEEKQVVEAEKVVESPDFSKDEDYLGKVGMLNGGRRIDYVLQEKPIESFNEYLFALQSHLCYWESEDTALLLLKEIYRTMNISPEQPQH
B1 was tested, and the binding was “binds”.

No constants are given. Whether binding was seen depends on the method and setting. Binding seen in cells or lysates may run through a third protein. A yes stands for co-enrichment or nearness to the bait. Other partners may have been found.
